In the odorant receptor screen of Mainland et al. (2015):
Where “and” joins values, the source holds several entries; their conditions need not be identical. Identical values can stand only once. Some of the results follow. Each value is one well over the wells without odorant, computed here; the data are noisy.

System: OR5C1 clone 1425
Experiment: odorant receptor activation (CRE luciferase / Renilla) (fold of no-odor wells); higher = more activation
Details: 100 µM

| SMILES | odorant receptor activation |
| --- | --- |
| CCOc1cc(C=O)ccc1O [ethyl vanillin] | 1.2 and 1.1 |
| CCCCOC(C)=O [butyl acetate] | 0.496 |
| CCC(C)=O [2-butanone] | 0.792 |
| CS [methanethiol] | 1.27 |

System: OR5D14 clone 1230
Experiment: as above
Details: 100 µM

| SMILES | odorant receptor activation |
| --- | --- |
| CCOc1cc(C=O)ccc1O [ethyl vanillin] | 1.25 |
| CCCCOC(C)=O [butyl acetate] | 1.25 |
| CCC(C)=O [2-butanone] | 0.892 |
| CS [methanethiol] | 0.932 |

System: OR5D18 N136D clone 1203
Experiment: as above
Details: 100 µM

| SMILES | odorant receptor activation |
| --- | --- |
| CCOc1cc(C=O)ccc1O [ethyl vanillin] | 1.22 and 1.2 |
| CCCCOC(C)=O [butyl acetate] | 0.756 |
| CCC(C)=O [2-butanone] | 0.8 |
| CS [methanethiol] | 0.977 |

System: OR5F1 S294N clone 1148
Experiment: as above
Details: 100 µM

| SMILES | odorant receptor activation |
| --- | --- |
| CCOc1cc(C=O)ccc1O [ethyl vanillin] | 1.25 and 1.27 |
| CCCCOC(C)=O [butyl acetate] | 0.94 |
| CCC(C)=O [2-butanone] | 1.14 |
| CS [methanethiol] | 0.88 |

System: OR5H1 I153L/T181I clone 1473
Experiment: as above
Details: 100 µM

| SMILES | odorant receptor activation |
| --- | --- |
| CCOc1cc(C=O)ccc1O [ethyl vanillin] | 1.07 and 2.51 and 0.929 |
| CCCCOC(C)=O [butyl acetate] | 0.801 |
| CCC(C)=O [2-butanone] | 0.944 |
| CS [methanethiol] | 0.725 |

System: OR5H1 clone 1471
Experiment: as above
Details: 100 µM

| SMILES | odorant receptor activation |
| --- | --- |
| CCOc1cc(C=O)ccc1O [ethyl vanillin] | 0.972 and 2.07 and 1.25 |
| CCCCOC(C)=O [butyl acetate] | 1.02 |
| CCC(C)=O [2-butanone] | 0.994 |
| CS [methanethiol] | 0.917 |

System: OR5H14 G64R/Y189C clone 1472
Experiment: as above
Details: 100 µM

| SMILES | odorant receptor activation |
| --- | --- |
| CCOc1cc(C=O)ccc1O [ethyl vanillin] | 1.45 and 1.28 and 1.26 |
| CCCCOC(C)=O [butyl acetate] | 0.86 |
| CCC(C)=O [2-butanone] | 1.13 |
| CS [methanethiol] | 0.923 |

System: OR5H2 E11Q/I225V/I281V clone 1466
Experiment: as above
Details: 100 µM

| SMILES | odorant receptor activation |
| --- | --- |
| CCOc1cc(C=O)ccc1O [ethyl vanillin] | 1.25 and 2.32 and 1.19 |
| CCCCOC(C)=O [butyl acetate] | 0.957 |
| CCC(C)=O [2-butanone] | 1.05 |
| CS [methanethiol] | 1 |

System: OR5H2 clone 1055
Experiment: as above
Details: 100 µM

| SMILES | odorant receptor activation |
| --- | --- |
| CCOc1cc(C=O)ccc1O [ethyl vanillin] | 1.11 and 1.02 |
| CCCCOC(C)=O [butyl acetate] | 1.46 |
| CCC(C)=O [2-butanone] | 2.56 |
| CS [methanethiol] | 1.09 |

System: OR5H6 clone 1056
Experiment: as above
Details: 100 µM

| SMILES | odorant receptor activation |
| --- | --- |
| CCOc1cc(C=O)ccc1O [ethyl vanillin] | 1.16 and 1.17 |
| CCCCOC(C)=O [butyl acetate] | 1.06 |
| CCC(C)=O [2-butanone] | 3.44 |
| CS [methanethiol] | 0.921 |
